Molecules are shown by their SMILES. ± gives the standard deviation of the averaged measurements. Some of the results follow. Part of the spread comes from offsets between plates or batches. Square brackets hold non-standard residues; d marks the D form. Peptide text beside a SMILES is read from it. pGlu = O=C1CC[C@@H](C(=O)O)N1; Thz = O=C(O)[C@@H]1CSCN1

The test system of the first assay is E18 rat cortical neuron-glia co-culture. Description: total nuclei (DAPI) / Olig2+ nuclei (ratio); higher = more depletion of OPC/OL lineage cells. The following applies: 1 µM; treatment time: 8 days (DIV5-DIV13). How it is done: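 Primary E18 rat cortical co-cultures (neurons, astrocytes, OPC/OLs) in 96-well plates. NIH Clinical Collection compounds were added on DIV5 in myelination medium at 5 and 1 µM for 8 days, then cells were fixed on DIV13 and stained for MBP, Olig2 and DAPI. Myelination (contiguous aligned MBP fiber length per Olig2+ nucleus) was normalised to plate controls (0.1% DMSO = 0, 1 µM DAPT = 100) as % of DAPT. Each value is from duplicate wells with 4 image fields each. Fiber length/MBP is the fiber score divided by the MBP differentiation score; DAPI/Olig2 is the ratio of total to Olig2+ nuclei.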
As to `CNC[C@H](O)c1ccc(O)c(O)c1` [Epinephrine], the total nuclei came to 2.67.

Consider `Cc1cccc(Nc2ccncc2S(=O)(=O)NC(=O)NC(C)C)c1` [Torsemide], for which the total nuclei stood at 2.84.

For the compound `O=C1CN(/N=C/c2ccc([N+](=O)[O-])o2)C(=O)N1` [Nitrofurantoin], the total nuclei turned out to be 3.79.

As for `O=C1c2c(O)ccc(O)c2C(=O)c2c(NCCNCCO)ccc(NCCNCCO)c21` [Mitoxantrone], the total nuclei is more than 40.

Consider `NC1CCN(c2cccc(Cl)n2)CC1`, for which the total nuclei amounted to 5.35.

Consider `O=C1CC[C@@H](C(=O)N2CSC[C@H]2C(=O)O)N1` [Pidotimod] ([pGlu]-[Thz]-OH), for which the total nuclei came out at 3.69.

In the case of `CC12CC3CC(C)(C1)CC(N)(C3)C2` [Memantine], the total nuclei was 3.1 ± 0.18.

With `CC1=C(C(=O)O)N2C(=O)[C@@H](NC(=O)[C@H](N)c3ccccc3)[C@H]2SC1` [Cephalexin], the total nuclei was determined as 3.69.

With `Cc1cc2c(s1)Nc1ccccc1N=C2N1CCN(C)CC1` [Olanzapine], the total nuclei was found to be 3.17.

In the case of `COc1ccc2cc(CCC(C)=O)ccc2c1` [Nabumetone], the total nuclei was 3.

Regarding `C[C@H]1O[C@H](O[C@H]2[C@H](O)[C@@H](O)[C@@H](O[C@H]3[C@H](O)[C@@H](O)C(O)O[C@@H]3CO)O[C@@H]2CO)[C@H](O)[C@@H](O)[C@@H]1N[C@H]1C=C(CO)[C@@H](O)[C@H](O)[C@H]1O` (stereo not given in full) [Acarbose], the total nuclei was found to be 3.

For the compound `Nc1ncnc2c1ncn2[C@@H]1O[C@H](CO)[C@@H](O)[C@H]1O` [Adenosine], the total nuclei came to 3.68.

As to `C[C@@H]1C[C@H]2[C@@H]3CCC4=CC(=O)C=C[C@]4(C)[C@@]3(F)[C@@H](O)C[C@]2(C)[C@@]1(O)C(=O)CO` [Dexamethasone], the total nuclei worked out at 2.65.

As for `COc1cc(C)c(/C=C/C(C)=C/C=C/C(C)=C/C(=O)O)c(C)c1C` [Acitretin], the total nuclei was 3.88.

Consider `CCCCNc1cc(C(=O)O)cc(S(N)(=O)=O)c1Oc1ccccc1` [Bumetanide], for which the total nuclei was determined as 2.76.

As for `CN(C)CCC=C1c2ccccc2CCc2ccccc21` [Amitriptyline], the total nuclei worked out at 3.96.

Turning to `CN(C/C=C/C#CC(C)(C)C)Cc1cccc2ccccc12` [Terbinafine], the total nuclei came out at 2.53.

With `OCCN(CCO)c1nc(N2CCCCC2)c2nc(N(CCO)CCO)nc(N3CCCCC3)c2n1` [Dipyridamole], the total nuclei was 4.

Turning to `O=C(c1ccc(OCCN2CCCCC2)cc1)c1c(-c2ccc(O)cc2)sc2cc(O)ccc12` [Raloxifene], the total nuclei amounted to 2.45.

As for `Oc1ccc(/C=C/c2cc(O)cc(O)c2)cc1` [Resveratrol], the total nuclei turned out to be 3.7.

The assay is the same for the next values; noted with them: 5 µM; treatment time: 8 days (DIV5-DIV13).
Turning to `CNC[C@H](O)c1ccc(O)c(O)c1` [Epinephrine], the total nuclei was 11.5.

Regarding `Cc1cccc(Nc2ccncc2S(=O)(=O)NC(=O)NC(C)C)c1` [Torsemide], the total nuclei worked out at 2.7.

`O=C1CN(/N=C/c2ccc([N+](=O)[O-])o2)C(=O)N1` [Nitrofurantoin]: the total nuclei is 4.2.

As for `O=C1c2c(O)ccc(O)c2C(=O)c2c(NCCNCCO)ccc(NCCNCCO)c21` [Mitoxantrone], the total nuclei is more than 40.

As for `NC1CCN(c2cccc(Cl)n2)CC1`, the total nuclei came to 4.2.

Turning to `O=C1CC[C@@H](C(=O)N2CSC[C@H]2C(=O)O)N1` [Pidotimod] ([pGlu]-[Thz]-OH), the total nuclei was 3.9.

Regarding `CC12CC3CC(C)(C1)CC(N)(C3)C2` [Memantine], the total nuclei stood at 2.75 ± 0.071.

On to `CC1=C(C(=O)O)N2C(=O)[C@@H](NC(=O)[C@H](N)c3ccccc3)[C@H]2SC1` [Cephalexin], for which the total nuclei was 4.3.

With `Cc1cc2c(s1)Nc1ccccc1N=C2N1CCN(C)CC1` [Olanzapine], the total nuclei is 2.7.

Turning to `COc1ccc2cc(CCC(C)=O)ccc2c1` [Nabumetone], the total nuclei stood at 2.9.

For `C[C@H]1O[C@H](O[C@H]2[C@H](O)[C@@H](O)[C@@H](O[C@H]3[C@H](O)[C@@H](O)C(O)O[C@@H]3CO)O[C@@H]2CO)[C@H](O)[C@@H](O)[C@@H]1N[C@H]1C=C(CO)[C@@H](O)[C@H](O)[C@H]1O` (stereo not given in full) [Acarbose], the total nuclei came out at 2.9.

For `Nc1ncnc2c1ncn2[C@@H]1O[C@H](CO)[C@@H](O)[C@H]1O` [Adenosine], the total nuclei was determined as 4.2.

Turning to `C[C@@H]1C[C@H]2[C@@H]3CCC4=CC(=O)C=C[C@]4(C)[C@@]3(F)[C@@H](O)C[C@]2(C)[C@@]1(O)C(=O)CO` [Dexamethasone], the total nuclei stood at 5.7.

Take `COc1cc(C)c(/C=C/C(C)=C/C=C/C(C)=C/C(=O)O)c(C)c1C` [Acitretin]: the total nuclei came out at 36.6.

As for `CCCCNc1cc(C(=O)O)cc(S(N)(=O)=O)c1Oc1ccccc1` [Bumetanide], the total nuclei came to 2.8.

For the compound `CN(C)CCC=C1c2ccccc2CCc2ccccc21` [Amitriptyline], the total nuclei worked out at 6.4.

For the compound `CN(C/C=C/C#CC(C)(C)C)Cc1cccc2ccccc12` [Terbinafine], the total nuclei was more than 40.

Regarding `OCCN(CCO)c1nc(N2CCCCC2)c2nc(N(CCO)CCO)nc(N3CCCCC3)c2n1` [Dipyridamole], the total nuclei turned out to be 4.9.

For `O=C(c1ccc(OCCN2CCCCC2)cc1)c1c(-c2ccc(O)cc2)sc2cc(O)ccc12` [Raloxifene], the total nuclei is 35.

For the compound `Oc1ccc(/C=C/c2cc(O)cc(O)c2)cc1` [Resveratrol], the total nuclei was determined as 3.2.

Values taken from the supplement of paper PMC4840960.
